Laboratory results as given in the supplement of paper PMC12889115.
Some of the results follow. These are raw signals, not scaled to a control.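 In the initial screen, polymyxin B was used at a concentration that permeabilizes Salmonella's outer membrane but not its inner membrane. Maximum growth was set by DMSO wells with or without polymyxin B. Since plates varied, data were ranked per plate, and compounds giving the lowest OD600 advanced as hits.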

System: Salmonella enterica serovar Typhimurium SL1344
Experiment: bacterial growth OD600 after 18 h with compound and polymyxin B; higher = more bacterial growth (less inhibition)
Details: 50 µM, Mueller-Hinton broth

Structure (SMILES) | bacterial growth OD600 (polymyxin B 1 µg/mL) | bacterial growth OD600 (polymyxin B 0.75 µg/mL)
O=C(CC1CC1)NC1CCCc2nc(-c3ccccc3)ncc21 (centres undefined) | 0.852 | –
CC(C)CCC(=O)N1CCC(C2(c3cccnc3)NC(=O)N(CCc3cccs3)C2=O)CC1 (centres undefined) | – | 0.853
Cc1nc(N(C)C2CCCCC2)ncc1C(C)NS(=O)(=O)N(C)C (centres undefined) | 0.928 | –
CCc1nccn1CCC(=O)N(C)CC1CCCN(CCc2ccc(F)cc2)C1 (centres undefined) | – | 0.817
C#CCN(Cc1ccco1)C(=O)CC1(c2ccccc2F)CC(=O)N(CCOC)C1=O (centres undefined) | – | 0.861
COCCN(C(=O)c1cc(OC)ccc1OC1CCN(C2CCCC2)CC1)C(C)C | 0.996 | –
C#Cc1ccc(CN2CCC(N3CCC(C(=O)NCC4CCCO4)CC3)CC2)cc1 (centres undefined) | 0.789 | –
CC(C)N1CCC(N2CCCC(C(=O)NCc3ccc(F)c(F)c3)C2)CC1 (centres undefined) | – | 0.853
CC(C)CCN(C)C(=O)C1CCCN(C2CCN(C(=O)C3CC3)CC2)C1 (centres undefined) | – | 1.01
CCN(Cc1ccncc1)C(=O)CC1(c2ccccc2OC)CC(=O)N(CCCOC)C1=O (centres undefined) | – | 1
CN(CCC1CCOCC1)C(=O)c1ccc(OC2CCN(C(=O)C3CC3)CC2)cc1 | 0.863 | –
COCc1ccc(C(=O)NCc2c(C)ncc3c2CCN(C(=O)c2cc(CC(C)C)on2)C3)o1 | – | 0.778
Cc1c[nH]c(C(=O)N2CCC3(CCCN(Cc4ccccc4F)C3=O)C2)n1 (centres undefined) | 0.946 | –
COCC(=O)Nc1cc(C(=O)NCC2CCN(CC(C)C)CC2)cc2nc(-c3cccnc3)n(C)c12 | – | 0.731
Cc1ncc(CN2CC[C@@H](N3CCCCCC3)[C@H](O)C2)cn1 | – | 0.813
CCOC(=O)CCNC(=O)c1ccc2nc(-c3cccc(OC)c3)oc2c1 | 1.06 | –
CCOC(=O)C1(C/C=C/c2ccccc2)CCCN(C)C1 (centres undefined) | – | 0.818
CCc1[nH]c2c(CNCc3cnn(CC)c3)cc(F)cc2c1C | – | 0.78
COc1ccc(NC(=O)CCC2CCCN(CCCn3cccn3)C2)cc1Cl (centres undefined) | 0.901 | –

Copied from the entries so far, 2 compounds:
Structure (SMILES) | bacterial growth OD600 (polymyxin B 1 µg/mL) | bacterial growth OD600 (polymyxin B 0.75 µg/mL)
C#CCN(Cc1ccco1)C(=O)CC1(c2ccccc2F)CC(=O)N(CCOC)C1=O (centres undefined) | – | 0.861
COCCN(C(=O)c1cc(OC)ccc1OC1CCN(C2CCCC2)CC1)C(C)C | 0.996 | –
